{"source": "patent US7338977B2", "about": "“Anti-viral compounds” (Aids Care Pharma Limited, priority 2003, dated 2008)", "origin": "cited, not measured here", "tested_on": "HIV", "settings": "patients, drug used on its own; cited from earlier work", "note": "For at least one compound, name, drawing or mass did not settle the structure.", "data": [{"compound": "Nc1ccn([C@@H]2CS[C@H](CO)O2)c(=O)n1", "note": "[Lamivudine]", "values": [{"measurement": "REDUCTION IN VIRAL LOAD", "value": "50–90%"}]}]}
